Results reported in PubChem BioAssay AID504467 (National Center for Advancing Translational Sciences (NCATS), 2011).
Screen size: about 330,000 compounds; about 7,700 (2.3%) were called active. The shares of active, inactive and inconclusive entries below differ from those in the screen. Calls follow the shape of the dose curve; as a rule, active = well fitted inhibition curve with a large enough effect; inconclusive = small, poorly fitted or top-dose-only effect, or effect the other way; inactive = flat fitted curve, though single readings scatter. Potencies of inconclusive entries are doubtful fits and often do not repeat.

Assay: qHTS screen for small molecules that inhibit ELG1-dependent DNA repair in human embryonic kidney (HEK293T) cells expressing luciferase-tagged ELG1; also: nearly all actives have a fitted effect of over 55% in size
Details: HEK293T ELG1-luciferase reporter, luminescence, 16 h, DNA damage induced by 5-fluorouridine; activity change, negative = inhibition: at 46.1 µM (top of the series)
Procedure, shortened: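 Step one: seed 2,000 cells per well. Step two: pin-transfer compound or DMSO alongside 5-fluorouridine. Step three: incubate 16 hr, 37 °C, 5% CO2. Step four: add ONE-Glo, wait 30 min, read luminescence.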
% is scaled to controls: 0 for no effect and ±100 for the full control effect; potency is read from the fitted curve at half-maximal effect.

**Q.** With `Cc1ccc(N2C(=O)C(Cl)=C(N3CCOCC3)C2=O)c(C)c1` as the compound, how does the “activity change, negative = inhibition” value read?
**A.** inactive: -8.31%

**Q.** With `Cc1nc(SCC(=O)O)c(C#N)c(C)c1CC(=O)c1ccccc1` as the compound, how does the Potency read?
**A.** inconclusive: 18.3 µM [inhibitor, single point]

**Q.** For `N/C(=N\OC(=O)c1csnn1)c1ccc(C(F)(F)F)cc1`, which Potency is on record?
**A.** inconclusive: 20.6 µM [activator, partial curve]

**Q.** Which Potency does the source give for `COc1ccc(C)cc1-n1nnnc1SCc1nc2ccccc2c(=O)[nH]1` here?
**A.** inconclusive: 23.1 µM [inhibitor, partial curve, poor fit]

**Q.** For `CC(C)(C)NC(=O)C(Cc1ccccc1)NS(=O)(=O)c1ccc2c(c1)CCC(=O)N2` (configuration not stated), which Potency is on record?
**A.** inconclusive: 25.9 µM [activator, single point]

**Q.** With `CCC(C)NS(=O)(=O)c1ccc(S(=O)(=O)N(CCc2ccc(OC)c(OC)c2)Cc2cccs2)cc1` (configuration not stated) as the compound, how does the Potency read?
**A.** inconclusive: 4.11 µM [inhibitor, partial curve, poor fit]

**Q.** For `CCN(c1ccccc1)S(=O)(=O)c1ccc(F)c(C(=O)O)c1`, which “activity change, negative = inhibition” value is on record?
**A.** inactive: 4.61%

**Q.** For `C=C(C)CSc1nc2nc(C)cc(C)n2n1`, which Potency is on record?
**A.** inconclusive: 0.82 µM [activator, partial curve, poor fit]

**Q.** For `O=C(O)CCCC(=O)Nc1cccc(C(=O)Nc2ccccc2C(=O)O)c1`, which “activity change, negative = inhibition” value is on record?
**A.** inactive: -4.04%

**Q.** With `CCn1c(=O)n(CC)c2cc(S(=O)(=O)NCCOc3ccccc3)c(C)cc21` as the compound, how does the Potency read?
**A.** inconclusive: 16.4 µM [inhibitor, partial curve, poor fit]

**Q.** With `CCOC(=O)CSc1nsc(SCC(=O)OCC)c1C#N` as the compound, how does the “activity change, negative = inhibition” value read?
**A.** inactive: 3.03%

**Q.** For `Cc1ccc(S(=O)(=O)N2CCN(C(=O)CCCOc3ccc(Cl)cc3C)CC2)cc1`, which Potency is on record?
**A.** inconclusive: 23.1 µM [inhibitor, partial curve]

**Q.** For `O=C(CSc1nnc(-c2ccc(F)cc2)o1)c1ccc2c(c1)OCCO2`, which “activity change, negative = inhibition” value is on record?
**A.** inactive: 6.37%

**Q.** With `O=C(N/N=C/c1ccccn1)c1cccs1` as the compound, how does the “activity change, negative = inhibition” value read?
**A.** inactive: -7.54%

**Q.** With `Cc1ccc(N=C2NC(=O)/C(=C/c3cccn3C)S2)c(C)c1` as the compound, how does the Potency read?
**A.** inconclusive: 23.1 µM [inhibitor, single point]

**Q.** Which Potency does the source give for `Cn1cc(S(=O)(=O)Cc2ccc(F)cc2)c2ccccc21` here?
**A.** inconclusive: 25.9 µM [activator, single point]

**Q.** With `Nn1c(SCc2cccc(C(F)(F)F)c2)nnc1-c1ccco1` as the compound, how does the “activity change, negative = inhibition” value read?
**A.** inactive: 0.0912%

**Q.** Which Potency does the source give for `COc1c(F)c(F)c(C(=O)Nc2ccc(-c3nc4ccccc4[nH]3)cc2)c(F)c1F` here?
**A.** inconclusive: 5.8 µM [activator, full curve]

**Q.** For `CC(=O)c1cccc(NC(=O)CN2CCc3cc4c(cc3C2C)OCCCO4)c1` (configuration not stated), which Potency is on record?
**A.** active: 11.6 µM

**Q.** Which Potency does the source give for `Cc1cc(C)c(S(=O)(=O)N2CCCCC2)cc1N(C)S(=O)(=O)c1ccc(Cl)cc1` here?
**A.** inconclusive: 29.1 µM [inhibitor, single point]

**Q.** Which “activity change, negative = inhibition” value does the source give for `O=S(=O)(c1ccc(Cl)cc1)c1nc(-c2ccco2)oc1N1CCCCC1` here?
**A.** inactive: -29%

**Q.** With `COC(=O)c1c(NC(=O)c2ccoc2C)sc(C)c1C` as the compound, how does the “activity change, negative = inhibition” value read?
**A.** inactive: 9.26%

**Q.** For `O=C(Nc1ccc(S(=O)(=O)NCC2CCCO2)cc1)c1ccc(Cl)cc1[N+](=O)[O-]` (configuration not stated), which Potency is on record?
**A.** inconclusive: 29.1 µM [inhibitor, single point]

**Q.** Which Potency does the source give for `O=C(Nc1nnc(SCc2ccccc2)s1)c1cc2c(s1)CCCC2` here?
**A.** inconclusive: 16.4 µM [activator, partial curve]

**Q.** With `CCn1c2ccccc2c2cc(NC(=O)COC(=O)Cc3cn4ccsc4n3)ccc21` as the compound, how does the Potency read?
**A.** inconclusive: 20 µM [activator, single point]

**Q.** For `N#C/C(=C\c1cn(Cc2ccc(F)cc2)c2ccccc12)C(=O)NCc1ccco1`, which Potency is on record?
**A.** inconclusive: 25.9 µM [activator, partial curve, poor fit]

**Q.** With `COc1ccc(CC(=O)OCC(=O)Nc2ccc3c(c2)OCO3)cc1` as the compound, how does the “activity change, negative = inhibition” value read?
**A.** inactive: -6.36%

**Q.** For `N#Cc1cccc(Nc2c3c(nc4ccccc24)CCCC3)c1`, which Potency is on record?
**A.** inconclusive: 23.1 µM [inhibitor, single point]

**Q.** With `Cc1cccc(Nc2ncnc3onc(-c4ccc(F)cc4)c23)c1C` as the compound, how does the “activity change, negative = inhibition” value read?
**A.** inactive: 11.4%

**Q.** For `CCOC(=O)c1c(NC(=O)c2cc(-c3ccc(O)cc3)on2)sc(C(C)=O)c1C`, which “activity change, negative = inhibition” value is on record?
**A.** inactive: 1.54%

**Q.** For `CCc1ccccc1NC(=O)c1ccccc1Sc1ccc([N+](=O)[O-])cc1Cl`, which “activity change, negative = inhibition” value is on record?
**A.** inactive: -16.6%

**Q.** Which Potency does the source give for `S=C(NCCc1c[nH]c2ccccc12)NC1CCCC1` here?
**A.** inconclusive: 16.4 µM [inhibitor, single point]

**Q.** Which Potency does the source give for `Cc1cccc(Nc2nc(CC(=O)O)cs2)c1` here?
**A.** inconclusive: 16.4 µM [activator, single point]

**Q.** With `COc1ccc(NC(=O)CCC(=O)Nc2nnc(C(C)C)s2)cc1Cl` as the compound, how does the Potency read?
**A.** inconclusive: 23.1 µM [activator, single point]

**Q.** For `Cc1cc(C(=O)NC(=S)Nc2cccc(NC(=O)C(C)C)c2)ccc1[N+](=O)[O-]`, which Potency is on record?
**A.** inconclusive: 18.4 µM [inhibitor, single point]

**Q.** Which “activity change, negative = inhibition” value does the source give for `CCOCCCN(C(=O)c1ccco1)C(C(=O)NC1CCCC1)c1cccc(OC)c1OC` (configuration not stated) here?
**A.** inactive: 0.294%

**Q.** For `Cc1sc2ncnc(N3CCC(C(=O)Nc4ccccc4C(C)(C)C)CC3)c2c1C`, which Potency is on record?
**A.** active: 9.2 µM

**Q.** Which Potency does the source give for `COC(=O)C1=C(C)NC(C)=C(C(=O)OC)C1C(=O)OC(C)C(=O)c1ccccc1` (configuration not stated) here?
**A.** inconclusive: 29.1 µM [inhibitor, single point]

**Q.** Which Potency does the source give for `O=[N+]([O-])c1ccc(Cl)c(/C=N/n2c(C3CCCCC3)n[nH]c2=S)c1` here?
**A.** inconclusive: 14.6 µM [activator, single point]

**Q.** With `COc1ccc(CCN(C)C(=S)Nc2ccc(SC(F)F)cc2)cc1OC` as the compound, how does the Potency read?
**A.** inconclusive: 29.1 µM [inhibitor, single point]

**Q.** Which Potency does the source give for `COc1cccc(/C=C2\SC(=S)N(CCC(=O)Nc3ccc(O)cc3)C2=O)c1` here?
**A.** inconclusive: 18.3 µM [activator, partial curve]

**Q.** With `CNC(=O)C1CC(=O)N(c2ccc(OCC(=O)NCc3ccccc3)cc2)C1` (configuration not stated) as the compound, how does the Potency read?
**A.** inconclusive: 29.1 µM [activator, single point]

**Q.** With `Oc1cccc2cnccc12` as the compound, how does the Potency read?
**A.** inconclusive: 29.1 µM [inhibitor, single point]

**Q.** Which Potency does the source give for `COc1ccccc1Nc1nnc(SCc2nnc(-c3cc(OC)c(OC)c(OC)c3)o2)s1` here?
**A.** active: 6.51 µM

**Q.** Which Potency does the source give for `CCOC(=O)c1ccc(-c2ccc3c(c2)CCC3)nc1C` here?
**A.** inconclusive: 7.3 µM [activator, partial curve]

**Q.** Which “activity change, negative = inhibition” value does the source give for `CNC(=O)c1c(NC(=O)C(C)C)sc2c1CCC2` here?
**A.** inactive: 1.44%

**Q.** With `CN(Cc1cccs1)C(=O)c1cccc(S(=O)(=O)N2CCCCCC2)c1` as the compound, how does the “activity change, negative = inhibition” value read?
**A.** inactive: -10.1%

**Q.** For `C=CCn1cccc(C(=O)Nc2cc(OC)ccc2OC)c1=O`, which “activity change, negative = inhibition” value is on record?
**A.** inactive: -7.45%

**Q.** Which Potency does the source give for `Cc1ccc2nc(-c3ccc(SCC(=O)Nc4nnc(C)s4)nc3)[nH]c2c1` here?
**A.** inconclusive: 2.91 µM [activator, partial curve]

**Q.** With `C[C@@H]1COC(=O)[C@H](Cc2ccc(F)cc2)CC/C=C/C[C@@H](CC(=O)N[C@H](CO)Cc2ccccc2)C(=O)N1` as the compound, how does the “activity change, negative = inhibition” value read?
**A.** inactive: 4.91%

**Q.** With `O=C(NC1=NCCS1)c1ccc(Br)s1` as the compound, how does the Potency read?
**A.** inconclusive: 10.3 µM [activator, partial curve]

**Q.** For `CCCN1CCN(CCCNC(=O)Cn2nc(C)n3c(cc4cc(OC)ccc43)c2=O)CC1`, which “activity change, negative = inhibition” value is on record?
**A.** inactive: 27%

**Q.** With `Cc1ccccc1C(=O)NNS(=O)(=O)c1cccc([N+](=O)[O-])c1` as the compound, how does the “activity change, negative = inhibition” value read?
**A.** inactive: -6.51%

**Q.** Which Potency does the source give for `COc1cc(Cl)ccc1S(=O)(=O)n1nc(C)cc1C` here?
**A.** inconclusive: 18.4 µM [inhibitor, single point]

**Q.** For `CSc1nsc(SCC(=O)Nc2ccc3c(c2)OCCO3)n1`, which Potency is on record?
**A.** inconclusive: 16.4 µM [activator, partial curve]

**Q.** For `NNC(=O)c1ccc(Cn2cc(Br)cn2)cc1`, which “activity change, negative = inhibition” value is on record?
**A.** inactive: -21.6%

**Q.** With `CCOC(=O)N1CCN(c2nc3ccc(C)cc3n3cnnc23)CC1` as the compound, how does the “activity change, negative = inhibition” value read?
**A.** inactive: 25.8%

**Q.** With `Cc1ccc(S(C)(=O)=N/C=C2\C(=O)c3sccc3N(C)S2(=O)=O)cc1` (configuration not stated) as the compound, how does the Potency read?
**A.** inconclusive: 16.4 µM [activator, partial curve, poor fit]

**Q.** For `O=C(/C=C/c1ccccc1Cl)Nc1cccnc1`, which Potency is on record?
**A.** inconclusive: 0.794 µM [activator, full curve, poor fit]

**Q.** For `COc1ccccc1NS(=O)(=O)c1cc(NC(=O)C(C)(C)C)ccc1N1CCOCC1`, which Potency is on record?
**A.** inconclusive: 9.2 µM [inhibitor, partial curve, poor fit]

**Q.** For `COc1ccc2cc(C#N)c(SCC(=O)N3CC(=O)Nc4ccccc43)nc2c1`, which Potency is on record?
**A.** inconclusive: 0.651 µM [inhibitor, single point]

**Q.** Which Potency does the source give for `COc1cccc(CCNC(=O)c2cccc(NC(=O)C3=C(C)OCCS3)c2)c1` here?
**A.** active: 20.6 µM

**Q.** Which Potency does the source give for `COc1ccc(CCNC(=O)c2cc(S(=O)(=O)N3CCCCC3)ccc2Cl)cc1` here?
**A.** inconclusive: 0.206 µM [inhibitor, single point]

**Q.** With `C[C@@H]1CN([C@@H](C)CO)C(=O)Cc2cc(NC(=O)Nc3cccc4ccccc34)ccc2O[C@@H]1CN(C)Cc1ccc(C(F)(F)F)cc1` as the compound, how does the Potency read?
**A.** inconclusive: 25.9 µM [inhibitor, single point]

**Q.** Which activity change, negative = inhibition does the source give for `O=C(CCn1cnnn1)Nc1ccc(F)cc1` here?
**A.** inconclusive: 142% [activator]

**Q.** With `Cc1ccccc1NC(=O)c1ccc(Cl)c(NC(=O)c2ccncc2)c1` as the compound, how does the “activity change, negative = inhibition” value read?
**A.** inactive: -16.8%

**Q.** Which Potency does the source give for `Cc1cc(CN(C)C(=O)c2cc(COc3ccc(F)cc3Cl)on2)n[nH]1` here?
**A.** inconclusive: 20.6 µM [activator, partial curve]

**Q.** For `O=C(O)c1cc2ncc(CCO)cn2n1`, which “activity change, negative = inhibition” value is on record?
**A.** inactive: 8.42%

**Q.** For `c1ccc(-c2csc(N3CCSCC3)n2)cc1`, which Potency is on record?
**A.** inconclusive: 29.1 µM [activator, single point]

**Q.** For `Cn1c(C(=O)c2ccccc2)nc2ccccc21`, which Potency is on record?
**A.** inconclusive: 20.6 µM [activator, partial curve, poor fit]

**Q.** For `Cc1ccc(-c2nc3cccnc3s2)cc1NC(=O)C1c2ccccc2Oc2ccccc21`, which Potency is on record?
**A.** inconclusive: 18.4 µM [activator, single point]

**Q.** Which Potency does the source give for `CC1=NN(C(N)=S)C(=O)C1N=Nc1cc(Cl)ccc1Cl` (configuration not stated) here?
**A.** inconclusive: 20.6 µM [inhibitor, partial curve, poor fit]
